Experiment: Brain lipid-water partition coefficient log MAbrain (membrane affinity) on immobilized brain lipid membranes
Format: physicochemical
Procedure: 440 mg of a brain lipid extract (Avanti Polar Lipids Inc., USA) are dissolved in 50 mL of chloroform. This solution is evaporated under reduced pressure in a glass flask in a rotating rotary evaporator, wherein a thin lipid film deposits on the wall.
The lipid film is swollen overnight in a water vapor atmosphere; subsequently, 88 mL of a buffer (20 mM HEPES, pH 7.0, 30 mM NaCl, 2 mM CaCl2) are added, and the lipid film is vesiculated by means of a high-pressure homogenizer.
5 g of the carrier material provided above are added to the vesicle solution thus produced and incubated overnight. Excess lipid is removed by washing three times with buffer (20 mM HEPES, pH 7.0, 30 mM NaCl, 2 mM CaCl2). Finally, this is followed by rebuffering in PBS (phosphate-buffered saline, 10 mM sodium phosphate, 0.9% NaCl, pH 7.4) and filling up to 25 mL with buffer. The suspension obtained is then used to determine the brain lipid-water partition coefficient, as described below. […]
To each of these wells, 45 μL of a 500 μM solution of trifluoperazine in PBS/10% DMSO are added, and after mixing by resuspension, the solid body is separated from the supernatant by sedimentation. The concentration of the substance in the supernatant is quantified by UV measurement, and the brain lipid-water partition coefficient log MAbrain is calculated through the following equation: […]

- logMAbrain (Table 1, PBS pH 7.4, quantified by HPLC): 0.90
- logMAbrain (Table 4, repeated parameter set): 0.90
SMILES: CC(C)NCC(O)COc1ccc(CC(N)=O)cc1 (centres unmarked) [Atenolol, atenolol]
